PubChem BioAssay AID1259308 – NCATS, 2017
The whole screen tested about 59,000 reagents; this is an unselected part. About 1,510 of all reagents (2.6%) count as active. 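Calls use total luciferase alone and ignore viability, so some active siRNAs may act by altering cell number.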 Unmarked entries are inactive. Reagents against one gene are numbered here. No sequences are given here.

Purpose: 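Knock-downs that increase output of a recombinant reporter protein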 (primary screen)
System: human HEK293 embryonic kidney cells stably expressing firefly luciferase (HEK-CMV-Luc2-Hygro)
Knock-down reagent: single siRNA against human genes, 0.8 pmol siRNA per well
Timing: 72 h
Measurement: 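Luciferase light (ONE-Glo) measured on one replicate plate set and viability (CellTiter-Glo) on the other, scaled to a negative control siRNA, with robust z-scores and luciferase per cell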
Direction: total luciferase, z-score and total luciferase, % of control: higher = more reporter protein produced; luciferase per cell, z-score: higher = more reporter output per viable cell; viable cells, % of control: higher = more viable cells
Call rule: 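Active when the median/MAD z-score for overall luciferase is greater than 3; a gene was taken forward for validation with new siRNAs if at least two of its three siRNAs passed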
Meaning of the calls: active = raised luciferase; inactive = no rise

gene | reagent no. | total luciferase, z-score | total luciferase, % of control | luciferase per cell, z-score | viable cells, % of control
IPCEF1 (interaction protein for cytohesin exchange factors 1) | 1 | 0.997 | 102 | 0.606 | 96.9
IPCEF1 (interaction protein for cytohesin exchange factors 1) | 2 | -0.218 | 77.5 | -0.323 | 94.4
IPCEF1 (interaction protein for cytohesin exchange factors 1) | 3 | 0.532 | 92.5 | -0.0419 | 104
ACOT13 (acyl-CoA thioesterase 13) | 1 | -2.56 | 30.9 | -1.91 | 57.1
ACOT13 (acyl-CoA thioesterase 13) | 2 | -0.694 | 68.1 | -1.04 | 99.9
ACOT13 (acyl-CoA thioesterase 13) | 3 | -1.25 | 57 | -1.96 | 107
ZFAND6 (zinc finger AN1-type containing 6) | 1 | -2.1 | 40.1 | -2.63 | 89.5
ZFAND6 (zinc finger AN1-type containing 6) | 2 | 2.41 | 130 | 1.5 | 97.9
ZFAND6 (zinc finger AN1-type containing 6) | 3 | 2.17 | 125 | 2.15 | 79.4
OR4C13 (olfactory receptor family 4 subfamily C member 13) | 1 | 1.35 | 109 | 1.55 | 80.8
OR4C13 (olfactory receptor family 4 subfamily C member 13) | 2 | 2.58 | 133 | 1.87 | 91
OR4C13 (olfactory receptor family 4 subfamily C member 13) | 3 | 1.41 | 110 | 0.788 | 99.8
NTMT1 (N-terminal Xaa-Pro-Lys N-methyltransferase 1) | 1 | 1.18 | 105 | 1.79 | 73.4
NTMT1 (N-terminal Xaa-Pro-Lys N-methyltransferase 1) | 2 | 0.174 | 85.3 | -0.689 | 114
NTMT1 (N-terminal Xaa-Pro-Lys N-methyltransferase 1) | 3 | -1.04 | 61.2 | -1.27 | 95.7
ZNF132 (zinc finger protein 132) | 1 | 1.5 | 112 | 1.21 | 90.7
ZNF132 (zinc finger protein 132) | 2 | -0.295 | 76 | -0.316 | 92.3
ZNF132 (zinc finger protein 132) | 3 | 0.556 | 93 | 0.743 | 85.4
GBA2 (glucosylceramidase beta 2) | 1 | 0.884 | 99.5 | 0.475 | 98.1
GBA2 (glucosylceramidase beta 2) | 2 | -1.53 | 51.4 | -1.91 | 95
GBA2 (glucosylceramidase beta 2) | 3 | 0.0871 | 83.6 | -0.618 | 110
TRIM68 (tripartite motif containing 68) | 1 | -0.0756 | 80.4 | 0.384 | 81.2
TRIM68 (tripartite motif containing 68) | 2 | 0.898 | 99.7 | 1.39 | 77.3
TRIM68 (tripartite motif containing 68) | 3 | -0.868 | 64.6 | -0.0294 | 72.8
OR56A4 (olfactory receptor family 56 subfamily A member 4) | 1 | -2.76 | 27 | -0.477 | 34.2
OR56A4 (olfactory receptor family 56 subfamily A member 4) | 2 | -0.352 | 74.9 | -0.473 | 94.8
OR56A4 (olfactory receptor family 56 subfamily A member 4) | 3 | 2.42 | 130 | 1.86 | 88.9
GJB5 (gap junction protein beta 5) | 1 | 0.359 | 89 | 0.629 | 84.3
GJB5 (gap junction protein beta 5) | 2 | 0.211 | 86.1 | 0.433 | 85.8
GJB5 (gap junction protein beta 5) | 3 | 0.207 | 86 | -0.383 | 106
SPATA8 (spermatogenesis associated 8) | 1 | -0.593 | 70.1 | -0.904 | 99.4
SPATA8 (spermatogenesis associated 8) | 2 | 0.948 | 101 | 0.305 | 104
SPATA8 (spermatogenesis associated 8) | 3 | -0.651 | 68.9 | -0.346 | 84.4
H3Y2 (H3.Y histone 2) | 1 | 1.28 | 107 | 2.55 | 61.4
H3Y2 (H3.Y histone 2) | 2 | -1.94 | 43.3 | -1.36 | 69.2
H3Y2 (H3.Y histone 2) | 3 | 0.168 | 85.2 | -0.4 | 106
CADM3 (cell adhesion molecule 3) | 1 | 1.24 | 107 | 1.26 | 85.5
CADM3 (cell adhesion molecule 3) | 2 | 2.56 | 133 | 1.64 | 96.3
CADM3 (cell adhesion molecule 3) | 3 | -0.712 | 67.7 | -1.01 | 98.8
